Assay results reported in patent US5068358A, “Process for extracting N-methyl-2-pyrrolidone” (Hoechst Aktiengesellschaft, priority 1988, dated 1991).
Read-outs that look alike come from different tables or passages of the source.

For CC(C)(C)CC(C)(C)c1ccc(O)cc1 [p-(1,1,3,3-tetramethylbutyl)-phenol], the “NMP in aqueous raffinate” value (Example 9, feed about 35% NMP, X:S=2:1, 90° C., analogously to Example 7) was 0.04 % by weight.
In the case of nonylphenol, the extraction yield (Example 2, feed 33.4% NMP, room temperature, pulsed counter-current, four stages, 1.43 parts nonylphenol per part bath) is reported as “more than 99.97%”, the extraction yield (Example 3, feed 33.4% NMP, X:S=4:1, 70° C., 4-stage mixer/settler) is reported as 99.4% and the extraction yield (Example 5, feed about 35% NMP, X:S=2:1, 60° C., about 5 to 6 theoretical stages, Karr 2.5 m) is reported as “about 99.99%”.
